In article PMC11032447 one finds binding data, which are given here for two substances.

By UniProt entry, the sequences of proteins in these tests, tags left out.
UniProt Q91WD9: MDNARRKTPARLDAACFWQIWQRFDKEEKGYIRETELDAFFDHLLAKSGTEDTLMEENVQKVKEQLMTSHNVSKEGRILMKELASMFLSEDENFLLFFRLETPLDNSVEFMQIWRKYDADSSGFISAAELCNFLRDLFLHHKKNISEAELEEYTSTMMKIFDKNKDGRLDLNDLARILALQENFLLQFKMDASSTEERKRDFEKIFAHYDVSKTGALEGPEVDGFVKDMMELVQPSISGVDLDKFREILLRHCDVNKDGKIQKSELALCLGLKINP

No constants are given. Whether binding was seen depends on the method and setting. For part of these data: Binding seen in cells or lysates may run through a third protein. Some entries that bind do so weakly or less than the wild type.

In assay [1] the target is mouse SNAP-25c motif 147-179 (mouse). The assay is described as follows: differential scanning fluorimetry; denaturation kinetics of mSCGN with the ligand, triplicates; both purified. (In general: In DSF a fluorescence change marks the thermal transition of the protein.)
Assay [2] concerns the target mSTX4^32–10, His6-tagged syntaxin-4 Hb peptide (mouse). The assay is described as follows: pull-down; His6-tagged partners expressed in E. coli BL21(DE3), captured on Ni-NTA resin as bait; bound secretagogin constructs analysed by SDS-PAGE.
Assay [3] concerns the target His6-tagged GFP-fusion construct carrying the mouse SNAP-25 14-33 peptide as C-terminal tag (mouse). The assay is described as follows: co-purification of co-expressed proteins; His6-GFP-SNAP25C-peptide and tag-free mSCGN co-expressed in E. coli BL21(DE3); complex purified (Ni-NTA, SEC) in buffers with 2 mM CaCl2; SDS gel.

As for “mouse secretagogin (from UniProt Q91WD9 1-276)”, the binding entry in assay [1] and in assay [2] was “binds” in each case.

In the case of “mouse secretagogin, tag-free, co-expressed with a His6-tagged partner (from UniProt Q91WD9 1-276)”, the binding entry in assay [3] is reported as “binds”.
